Drawing on publication PMC7248105, “Photoinduced monooxygenation involving NAD(P)H-FAD sequential single-electron transfer” (Nature Communications, 2020), this text covers binding for one molecule.

This assay deals with PqsL (flavoprotein monooxygenase, wild type) (Pseudomonas aeruginosa) (UniProt Q9HWJ1). The assay can be described thus: condition: only at high NaCl concentrations (150 mM NaCl in the methods); SEC; analytical gel filtration, Superdex 200 Increase 10/300 GL, 20 mM tris-HCl pH 8.5, 150 mM NaCl, 12 °C, calibrated with Bio-Rad standard; both purified.

No constants are given. Whether binding was seen depends on the method and setting.

B1: PqsL (flavoprotein monooxygenase, wild type) (enzyme, Pseudomonas aeruginosa)
chain: MTDNHIDVLINGCGIGGAMLAYLLGRQGHRVVVVEQARRERAINGADLLKPAGIRVVEAAGLLAEVTRRGGRVRHELEVYHDGELLRYFNYSSVDARGYFILMPCESLRRLVLEKIDGEATVEMLFETRIEAVQRDERHAIDQVRLNDGRVLRPRVVVGADGIASYVRRRLLDIDVERRPYPSPMLVGTFALAPCVAERNRLYVDSQGGLAYFYPIGFDRARLVVSFPREEARELMADTRGESLRRRLQRFVGDESAEAIAAVTGTSRFKGIPIGYLNLDRYWADNVAMLGDAIHNVHPITGQGMNLAIEDASALADALDLALRDACALEDALAGYQAERFPVNQAIVSYGHALATSLEDRQRFAGVFDTALQGSSRTPEALGGERSYQPVRSPAPLG
notes: PqsL, FAD-dependent monooxygenase of alkyl quinolone N-oxide biosynthesis, Pseudomonas aeruginosa; the crystal models hold residues 3-370; One protomer is written; also called Wild-type PqsL; FPMO PqsL; source: E. coli LMG194 (pHERD30T), purified (Ni-NTA, Resource Q anion exchange)
Consider B1, for which the binding entry is reported as “no binding”.
